Source: PMC3651127
No constants are given. Whether binding was seen depends on the method and setting. Binding seen in cells or lysates may run through a third protein. Some entries that bind do so weakly or less than the wild type. Tags and fused reporters may be left off the sequences shown.

Chains of the proteins cited; added tags and fusions are not shown.
UniProt P25963: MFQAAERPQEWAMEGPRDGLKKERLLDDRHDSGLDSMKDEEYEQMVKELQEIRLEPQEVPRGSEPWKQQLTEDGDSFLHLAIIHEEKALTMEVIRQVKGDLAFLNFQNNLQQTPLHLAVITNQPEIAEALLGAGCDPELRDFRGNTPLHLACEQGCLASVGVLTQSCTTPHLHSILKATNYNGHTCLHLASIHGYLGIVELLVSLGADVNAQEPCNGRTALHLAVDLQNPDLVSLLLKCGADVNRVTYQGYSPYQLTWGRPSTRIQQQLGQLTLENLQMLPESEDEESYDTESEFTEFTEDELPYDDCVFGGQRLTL

Biological target: T1, Flag-tagged DDRGK1 (human) (UniProt Q96HY6)
T1 sequence: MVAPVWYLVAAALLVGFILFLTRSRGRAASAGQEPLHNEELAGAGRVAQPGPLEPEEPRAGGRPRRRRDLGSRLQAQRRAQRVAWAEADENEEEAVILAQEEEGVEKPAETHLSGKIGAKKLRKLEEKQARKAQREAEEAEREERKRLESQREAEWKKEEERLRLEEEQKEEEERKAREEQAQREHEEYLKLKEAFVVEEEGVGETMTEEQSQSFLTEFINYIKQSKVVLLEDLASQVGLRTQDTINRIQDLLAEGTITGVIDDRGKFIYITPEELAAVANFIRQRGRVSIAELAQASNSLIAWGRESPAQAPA
Experiment: co-IP; 293T cells transfected with Flag-tagged construct; lysed in NP-40 lysis buffer; extract incubated with M2 anti-Flag resin overnight at 4°C; associated endogenous protein detected by immunoblotting

- binding: binds
Substance: endogenous IκBα (from UniProt P25963 1-317)
